Reference: PMC6377148

Sequences of proteins named here, by UniProt entry; tags and fusion partners are left off. A change or cut given only in a name is not applied to a line headed by its entry.
UniProt Q96DY7: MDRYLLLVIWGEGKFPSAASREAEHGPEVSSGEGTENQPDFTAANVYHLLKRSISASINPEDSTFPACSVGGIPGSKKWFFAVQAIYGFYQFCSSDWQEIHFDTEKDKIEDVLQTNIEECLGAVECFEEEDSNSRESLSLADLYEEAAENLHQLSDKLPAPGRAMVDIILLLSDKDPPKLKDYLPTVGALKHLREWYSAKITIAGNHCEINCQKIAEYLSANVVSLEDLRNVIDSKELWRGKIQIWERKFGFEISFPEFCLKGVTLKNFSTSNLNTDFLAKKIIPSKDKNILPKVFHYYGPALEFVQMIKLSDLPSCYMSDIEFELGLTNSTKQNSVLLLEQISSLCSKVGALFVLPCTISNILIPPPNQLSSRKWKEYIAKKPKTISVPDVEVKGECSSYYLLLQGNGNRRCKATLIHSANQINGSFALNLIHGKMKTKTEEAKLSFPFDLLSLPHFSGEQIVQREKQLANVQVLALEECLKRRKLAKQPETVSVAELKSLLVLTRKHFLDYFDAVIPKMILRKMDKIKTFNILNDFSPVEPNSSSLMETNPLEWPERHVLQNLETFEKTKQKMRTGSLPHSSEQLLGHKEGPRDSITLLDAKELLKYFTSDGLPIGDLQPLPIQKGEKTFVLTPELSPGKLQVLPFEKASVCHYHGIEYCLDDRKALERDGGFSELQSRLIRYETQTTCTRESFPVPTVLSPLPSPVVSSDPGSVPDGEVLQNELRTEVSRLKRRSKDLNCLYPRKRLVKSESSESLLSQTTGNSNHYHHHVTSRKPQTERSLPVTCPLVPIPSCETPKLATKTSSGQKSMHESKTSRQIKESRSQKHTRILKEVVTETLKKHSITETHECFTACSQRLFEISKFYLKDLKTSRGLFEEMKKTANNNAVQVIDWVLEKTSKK
UniProt P49336: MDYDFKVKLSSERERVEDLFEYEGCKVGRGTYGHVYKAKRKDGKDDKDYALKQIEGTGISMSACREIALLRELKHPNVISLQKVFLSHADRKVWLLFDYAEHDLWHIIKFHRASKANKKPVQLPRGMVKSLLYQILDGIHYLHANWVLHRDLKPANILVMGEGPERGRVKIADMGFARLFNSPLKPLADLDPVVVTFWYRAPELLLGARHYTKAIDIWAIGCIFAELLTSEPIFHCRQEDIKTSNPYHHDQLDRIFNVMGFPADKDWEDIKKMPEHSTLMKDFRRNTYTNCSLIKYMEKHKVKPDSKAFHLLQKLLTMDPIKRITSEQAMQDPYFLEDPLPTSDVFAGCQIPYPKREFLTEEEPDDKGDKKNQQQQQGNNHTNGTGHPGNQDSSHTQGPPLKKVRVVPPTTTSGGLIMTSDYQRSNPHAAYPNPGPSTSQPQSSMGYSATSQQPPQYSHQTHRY
UniProt Q7Z2Z1: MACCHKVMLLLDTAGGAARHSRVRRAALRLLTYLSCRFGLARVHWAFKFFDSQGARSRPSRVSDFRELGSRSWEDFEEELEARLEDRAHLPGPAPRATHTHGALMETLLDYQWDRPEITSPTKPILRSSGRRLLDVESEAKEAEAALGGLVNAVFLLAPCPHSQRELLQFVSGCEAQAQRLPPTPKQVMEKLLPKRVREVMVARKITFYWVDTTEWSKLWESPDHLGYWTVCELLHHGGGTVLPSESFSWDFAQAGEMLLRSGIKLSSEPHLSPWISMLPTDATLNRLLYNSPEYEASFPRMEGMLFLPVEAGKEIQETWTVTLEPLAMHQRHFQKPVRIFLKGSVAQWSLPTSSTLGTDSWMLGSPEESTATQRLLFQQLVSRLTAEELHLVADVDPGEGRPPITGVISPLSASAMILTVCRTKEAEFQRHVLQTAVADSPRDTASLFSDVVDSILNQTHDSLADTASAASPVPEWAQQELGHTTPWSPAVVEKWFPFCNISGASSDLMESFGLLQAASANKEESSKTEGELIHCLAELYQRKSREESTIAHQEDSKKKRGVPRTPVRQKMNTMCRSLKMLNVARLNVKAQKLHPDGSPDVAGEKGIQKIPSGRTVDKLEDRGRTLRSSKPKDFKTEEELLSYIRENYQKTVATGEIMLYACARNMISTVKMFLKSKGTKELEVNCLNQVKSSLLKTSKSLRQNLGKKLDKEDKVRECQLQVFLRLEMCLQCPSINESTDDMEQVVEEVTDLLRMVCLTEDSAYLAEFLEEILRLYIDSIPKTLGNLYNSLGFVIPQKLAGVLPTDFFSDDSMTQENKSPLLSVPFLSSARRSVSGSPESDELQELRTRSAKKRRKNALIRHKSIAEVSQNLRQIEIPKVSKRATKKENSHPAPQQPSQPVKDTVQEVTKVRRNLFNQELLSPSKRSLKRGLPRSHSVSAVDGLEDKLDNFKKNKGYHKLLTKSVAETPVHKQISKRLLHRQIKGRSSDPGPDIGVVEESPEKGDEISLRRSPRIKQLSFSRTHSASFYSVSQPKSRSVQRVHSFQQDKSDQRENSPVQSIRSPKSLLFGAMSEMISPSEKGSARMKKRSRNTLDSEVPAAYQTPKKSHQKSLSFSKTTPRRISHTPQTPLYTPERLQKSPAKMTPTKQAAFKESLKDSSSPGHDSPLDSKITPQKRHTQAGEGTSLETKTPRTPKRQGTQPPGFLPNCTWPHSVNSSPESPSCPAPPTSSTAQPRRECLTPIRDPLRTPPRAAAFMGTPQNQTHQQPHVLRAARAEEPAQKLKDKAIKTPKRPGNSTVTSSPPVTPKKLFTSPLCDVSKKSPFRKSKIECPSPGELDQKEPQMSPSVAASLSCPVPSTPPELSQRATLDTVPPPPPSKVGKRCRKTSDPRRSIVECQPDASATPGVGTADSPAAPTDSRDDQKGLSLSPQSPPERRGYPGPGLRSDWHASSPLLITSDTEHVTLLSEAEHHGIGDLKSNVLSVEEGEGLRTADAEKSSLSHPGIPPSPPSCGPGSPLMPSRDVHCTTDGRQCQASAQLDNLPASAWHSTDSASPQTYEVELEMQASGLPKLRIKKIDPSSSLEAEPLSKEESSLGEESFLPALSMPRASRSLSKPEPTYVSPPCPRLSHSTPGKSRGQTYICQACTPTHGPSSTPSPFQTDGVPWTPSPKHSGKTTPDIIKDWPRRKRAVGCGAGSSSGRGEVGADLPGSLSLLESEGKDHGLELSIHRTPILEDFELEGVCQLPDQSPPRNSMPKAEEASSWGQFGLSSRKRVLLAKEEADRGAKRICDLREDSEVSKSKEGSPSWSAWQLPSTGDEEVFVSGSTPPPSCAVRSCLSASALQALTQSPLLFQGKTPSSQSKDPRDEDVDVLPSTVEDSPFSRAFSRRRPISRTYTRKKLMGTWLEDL

Key:
[1] = biological target: MTBP S312 single point mutant, C-terminally 3×Flag-tagged (293T) (human) (UniProt Q96DY7); assay: co-IP; 293T transiently transfected with C-terminally 3×Flag-tagged MTBP; anti-FLAG antibody on Protein G Dynabeads, lysis buffer 20 mM HEPES, 150 mM NaCl, 10% glycerol, 0.1% Triton X-100, 1 h at 4°C; endogenous Treslin/TICRR and Cdk8 by immunoblot
[2] = biological target: MTBP S316 single point mutant, C-terminally 3×Flag-tagged (293T) (human) (UniProt Q96DY7); assay: as above
[3] = biological target: MTBP L311 single point mutant, C-terminally 3×Flag-tagged (293T) (human) (UniProt Q96DY7); assay: as above
[4] = biological target: MTBP M308 single point mutant, C-terminally 3×Flag-tagged (293T) (human) (UniProt Q96DY7); assay: as above
[5] = biological target: MTBP P315 single point mutant, C-terminally 3×Flag-tagged (293T) (human) (UniProt Q96DY7); assay: as above
[6] = biological target: MTBP K310 single point mutant, C-terminally 3×Flag-tagged (293T) (human) (UniProt Q96DY7); assay: as above
[7] = biological target: MTBP V306 single point mutant, C-terminally 3×Flag-tagged (293T) (human) (UniProt Q96DY7); assay: as above
[8] = biological target: MTBP Q307 single point mutant, C-terminally 3×Flag-tagged (293T) (human) (UniProt Q96DY7); assay: as above
[9] = biological target: MTBP–Cdk8 binding mutant (Cdk8bm), Flag3-tagged (HeLa Flip-In T-Rex stable line) (human) (UniProt Q96DY7); assay: co-IP; Flag IP from native lysates of HeLa Flip-In T-Rex lines expressing MTBP-Flag3 (WT or mutants); endogenous Treslin/TICRR and Cdk8 by immunoblot; in S5 Fig lysates with or without lambda phosphatase, M2 anti-Flag magnetic beads

Measured: binding

Cdk8 (cyclin-dependent kinase 8), endogenous (from UniProt P49336 1-464) (enzyme)
not listed: [9]
binds: all other assays above

Treslin/TICRR (TopBP1-interacting replication stimulating protein/TopBP1-interacting checkpoint and replication regulator), endogenous (from UniProt Q7Z2Z1 1-1910)
binds: [1] | [4] | [6] | [8] | [9]

These are yes or no findings as the source states them, for the method shown. Binding seen in cells or lysates may run through a third protein. Binding calls can cover weak binding; strength is not graded here.
